Measured values as given in publication PMC9157258.
No constants are given. Whether binding was seen depends on the method and setting. In cells and extracts the contact can be indirect. Some results given as binding are weak or reduced against the parent protein; the word gives no strength.

Key:
[1] = biological target: T1, Malignant T-cell-amplified sequence 1 (mouse (endogenous in fetal and adult HSPCs)) (UniProt Q9DB27); test: proximity ligation; Duolink in situ PLA with anti-DENR and anti-MCTS1 antibodies in methanol/acetone-fixed adult bone marrow HSPCs
T1 sequence: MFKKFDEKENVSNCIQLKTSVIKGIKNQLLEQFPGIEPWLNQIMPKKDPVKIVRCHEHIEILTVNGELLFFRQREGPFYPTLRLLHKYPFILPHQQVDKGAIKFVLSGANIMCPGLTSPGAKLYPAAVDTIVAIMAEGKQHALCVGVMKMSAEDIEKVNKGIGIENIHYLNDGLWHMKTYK

[2] = biological target: T1, Malignant T-cell-amplified sequence 1 (mouse (endogenous in fetal and adult HSPCs)); test: proximity ligation; Duolink in situ PLA with anti-DENR and anti-MCTS1 antibodies in methanol/acetone-fixed fetal liver HSPCs

- binding [2]: binds
B1: Density regulated protein (protein, UniProt Q9CQJ6 1-198)
chain: MATDISESSGADCKGDTKNSAKLDADYPLRVLYCGVCSLPTEYCEYMPDVAKCRQWLEKNFPNEFAKLTVENSPKQETGITEGQGPVGEEEEKKKQKRGGRGQIKQKKKTVPQKVTIAKIPRAKKKYVTRVCGLATFEIDLKEAQRFFAQKFSCGASVTGEDEIIIQGDFTDDIIDVIQEKWPEVDDDSIEDLGEVKK
- binding [1]: no binding (condition: in adult bone marrow HSPCs)
